Results reported in paper PMC10415149.
Substitutions are numbered along the chain they refer to. For some assays here: No signal at the amounts used counts as a negative. For some assays here: Protein sequences can lack the tags named with them. For some assays here: For at least one entry, the source does not settle the construct or the ends of the probe. For some assays here: The comparison behind a weaker result is the experiment's own reference, which may not be listed here. For some assays here: At least one verdict was read from the data and is not stated in words by the source.

Chains of the proteins cited; added tags and fusions are not shown. A line that says so, or that is headed by a name, gives the form on record, which may keep a tag or linker.
PrimPol1-475 (RBM deleted) + RPA, one chain, as listed by the source, stated change not applied, chain 4 of 3: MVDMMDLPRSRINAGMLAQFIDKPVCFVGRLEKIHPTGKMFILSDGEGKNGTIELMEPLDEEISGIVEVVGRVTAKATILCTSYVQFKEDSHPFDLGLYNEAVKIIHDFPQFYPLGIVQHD
PrimPol1-475 (RBM deleted) + RPA, one chain, as listed by the source, stated change not applied, chain 2 of 3: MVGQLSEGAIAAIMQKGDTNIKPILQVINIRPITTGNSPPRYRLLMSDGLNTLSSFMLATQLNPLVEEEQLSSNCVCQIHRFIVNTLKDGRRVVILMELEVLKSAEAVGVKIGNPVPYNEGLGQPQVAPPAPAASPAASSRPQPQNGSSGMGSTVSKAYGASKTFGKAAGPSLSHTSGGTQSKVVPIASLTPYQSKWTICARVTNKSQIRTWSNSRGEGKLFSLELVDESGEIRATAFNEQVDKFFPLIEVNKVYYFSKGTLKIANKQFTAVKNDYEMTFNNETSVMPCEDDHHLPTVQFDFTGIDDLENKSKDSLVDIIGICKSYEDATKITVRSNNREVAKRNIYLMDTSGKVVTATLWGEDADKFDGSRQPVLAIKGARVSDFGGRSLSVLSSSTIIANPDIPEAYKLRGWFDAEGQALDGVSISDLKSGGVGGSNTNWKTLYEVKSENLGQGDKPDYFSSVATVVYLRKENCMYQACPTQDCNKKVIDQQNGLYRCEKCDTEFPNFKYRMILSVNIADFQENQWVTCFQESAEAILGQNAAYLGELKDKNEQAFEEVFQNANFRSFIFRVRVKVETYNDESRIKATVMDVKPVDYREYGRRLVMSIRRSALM
PrimPol1-475 (RBM deleted) + RPA, one chain, as listed by the source, stated change not applied, chain 3 of 3: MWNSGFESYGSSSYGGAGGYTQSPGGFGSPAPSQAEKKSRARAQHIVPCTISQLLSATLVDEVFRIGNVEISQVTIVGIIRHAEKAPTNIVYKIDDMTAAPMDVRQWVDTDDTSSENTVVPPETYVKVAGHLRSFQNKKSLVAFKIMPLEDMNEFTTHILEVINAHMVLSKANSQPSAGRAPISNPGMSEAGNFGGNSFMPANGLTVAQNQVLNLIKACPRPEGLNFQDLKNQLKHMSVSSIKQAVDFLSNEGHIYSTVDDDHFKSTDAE

How the values were obtained:
Assay in all cases: EMSA
[1] = test system: PrimPol1-475 (RBM deleted) + RPA; conditions: PrimPol1-475 does not join preformed RPA:DNA, 1 mM Mn2+, ATP, dNTPs, 8 C; EMSA: 40 mM HEPES pH 7.0, 50 mM KCl, 1 mM DTT, 5% glycerol, 0.1 mg/ml BSA, 1 mM MnCl2, 300 nM DNA, 24 C 20 min then ice (RPA assays: 50 nM DNA, 25 nM RPA, 8 C); recombinant protein; protein details: N-terminal SUMO-HIS10; label: 32P; single-stranded DNA
RPA (Homo sapiens) = conditions: RPA preincubated with DNA, 8 C; EMSA: 40 mM HEPES pH 7.0, 50 mM KCl, 1 mM DTT, 5% glycerol, 0.1 mg/ml BSA, 1 mM MnCl2, 300 nM DNA, 24 C 20 min then ice (RPA assays: 50 nM DNA, 25 nM RPA, 8 C); recombinant protein; label: 32P; single-stranded DNA
[2] = biological target: T1, PrimPol1-475 (RBM deleted) (Homo sapiens) (UniProt Q96LW4); conditions: EMSA: 40 mM HEPES pH 7.0, 50 mM KCl, 1 mM DTT, 5% glycerol, 0.1 mg/ml BSA, 1 mM MnCl2, 300 nM DNA, 24 C 20 min then ice (RPA assays: 50 nM DNA, 25 nM RPA, 8 C), recombinant protein, residues 1-475, protein details: N-terminal SUMO-HIS10
T1 sequence (looked up): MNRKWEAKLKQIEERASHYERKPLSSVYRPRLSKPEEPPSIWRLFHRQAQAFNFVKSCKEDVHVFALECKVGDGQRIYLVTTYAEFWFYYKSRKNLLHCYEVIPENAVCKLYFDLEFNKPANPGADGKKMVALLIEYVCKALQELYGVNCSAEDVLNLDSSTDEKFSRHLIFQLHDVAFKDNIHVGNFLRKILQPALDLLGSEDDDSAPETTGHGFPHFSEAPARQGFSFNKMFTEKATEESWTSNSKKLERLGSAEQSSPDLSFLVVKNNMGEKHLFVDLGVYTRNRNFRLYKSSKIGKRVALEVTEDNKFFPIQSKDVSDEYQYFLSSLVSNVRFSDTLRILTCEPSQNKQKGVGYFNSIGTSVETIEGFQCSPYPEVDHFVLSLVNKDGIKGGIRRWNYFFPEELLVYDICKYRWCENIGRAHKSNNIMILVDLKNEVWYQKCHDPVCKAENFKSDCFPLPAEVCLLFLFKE

[3] = biological target: T2, PrimPol WT (Homo sapiens) (UniProt Q96LW4); conditions: EMSA: 40 mM HEPES pH 7.0, 50 mM KCl, 1 mM DTT, 5% glycerol, 0.1 mg/ml BSA, 1 mM MnCl2, 300 nM DNA, 24 C 20 min then ice (RPA assays: 50 nM DNA, 25 nM RPA, 8 C), recombinant protein, residues 1-560, protein details: N-terminal SUMO-HIS10
T2 sequence (looked up): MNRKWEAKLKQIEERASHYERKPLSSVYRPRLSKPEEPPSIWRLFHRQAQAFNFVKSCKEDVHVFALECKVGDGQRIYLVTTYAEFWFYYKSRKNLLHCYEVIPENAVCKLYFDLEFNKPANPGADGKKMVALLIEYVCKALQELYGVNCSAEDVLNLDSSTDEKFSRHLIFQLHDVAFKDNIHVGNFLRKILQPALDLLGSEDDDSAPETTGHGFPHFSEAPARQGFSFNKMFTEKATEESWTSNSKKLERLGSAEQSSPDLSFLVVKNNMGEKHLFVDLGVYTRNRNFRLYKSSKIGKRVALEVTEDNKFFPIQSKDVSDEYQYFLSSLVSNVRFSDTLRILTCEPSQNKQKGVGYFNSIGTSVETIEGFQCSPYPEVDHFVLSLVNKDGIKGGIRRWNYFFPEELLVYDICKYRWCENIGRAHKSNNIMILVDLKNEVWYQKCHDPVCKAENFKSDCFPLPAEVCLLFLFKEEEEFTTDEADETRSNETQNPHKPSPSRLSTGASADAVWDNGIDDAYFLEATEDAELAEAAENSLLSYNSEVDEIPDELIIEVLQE

[4] = biological target: T3, PrimPol R424A (Homo sapiens) (UniProt Q96LW4); conditions: 1 mM Mn2+; primer 5'-triphosphate; primer nt 1 is ribo-A, rest DNA; EMSA: 40 mM HEPES pH 7.0, 50 mM KCl, 1 mM DTT, 5% glycerol, 0.1 mg/ml BSA, 1 mM MnCl2, 300 nM DNA, 24 C 20 min then ice (RPA assays: 50 nM DNA, 25 nM RPA, 8 C); recombinant protein; residues 1-560; protein details: N-terminal SUMO-HIS10; label: Cy5 at 5' of template; letters put together from the description
T3 sequence (looked up): T2 sequence (looked up) with R424A

[5] = biological target: T4, PrimPol R417A (Homo sapiens) (UniProt Q96LW4); conditions: 1 mM Mn2+; primer 5'-triphosphate; primer nt 1 is ribo-A, rest DNA; EMSA: 40 mM HEPES pH 7.0, 50 mM KCl, 1 mM DTT, 5% glycerol, 0.1 mg/ml BSA, 1 mM MnCl2, 300 nM DNA, 24 C 20 min then ice (RPA assays: 50 nM DNA, 25 nM RPA, 8 C); recombinant protein; residues 1-560; protein details: N-terminal SUMO-HIS10; label: Cy5 at 5' of template; letters put together from the description
T4 sequence (looked up): T2 sequence (looked up) with R417A

[6] = biological target: T5, PrimPol1-363 (NTD) (Homo sapiens) (UniProt Q96LW4); conditions: 1 mM Mn2+; EMSA: 40 mM HEPES pH 7.0, 50 mM KCl, 1 mM DTT, 5% glycerol, 0.1 mg/ml BSA, 1 mM MnCl2, 300 nM DNA, 24 C 20 min then ice (RPA assays: 50 nM DNA, 25 nM RPA, 8 C); recombinant protein; residues 1-363; protein details: N-terminal SUMO-HIS10; label: 5' 32P on Primer-18
T5 sequence (looked up): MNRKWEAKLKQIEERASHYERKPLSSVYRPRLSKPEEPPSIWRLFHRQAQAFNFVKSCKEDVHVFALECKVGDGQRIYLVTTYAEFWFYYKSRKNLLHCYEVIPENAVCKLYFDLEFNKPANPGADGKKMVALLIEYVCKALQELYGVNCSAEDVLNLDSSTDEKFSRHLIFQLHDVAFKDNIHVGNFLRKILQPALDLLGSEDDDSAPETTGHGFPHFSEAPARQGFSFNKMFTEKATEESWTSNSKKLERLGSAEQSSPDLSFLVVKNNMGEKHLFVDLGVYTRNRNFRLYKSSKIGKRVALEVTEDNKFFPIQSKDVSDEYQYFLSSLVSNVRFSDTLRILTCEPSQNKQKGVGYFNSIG

[7] = 1 mM Mn2+, primer 5'-triphosphate, primer nt 1 is ribo-A, rest DNA, label: Cy5 at 5' of template, letters put together from the description
[8] = 1 mM Mn2+ with ATP, dGTP, dTTP (5'ppp primer made in situ), label: 5' Cy5, single-stranded DNA

Q: What does the source list for “AAAAAAAAAAAAAAAAAAAAAAAAAAAAAAAAAAAAAAAAACCTGAAAAAAAAAA [Acctg55]”?
A: binding result [1]: no binding; binding result (RPA (Homo sapiens)): binds

Q: Which Kd [2, 7] does the source give for “AAAAAAAAAACCTGAAAAAAAAAA / AGGTTTTT [p-p-p-8/Cy5-Acctg24]” here?
A: 110 nM

Q: What about the Kd [3, 7] of the same sequence?
A: 780 nM

Q: Does AAAAAAAAAACCTGAAAAAAAAAA [Cy5-Acctg24] bind [2, 8]?
A: binds

Q: Does AAAAAAAAAACCTGAAAAAAAAAA [Cy5-Acctg24] bind [3, 8]?
A: binds

Q: Does AAAAAAAAAACCTGAAAAAAAAAA [Cy5-Acctg24] bind ([3]; 1 mM Mn2+, 1-3 uM protein, label: 5' Cy5, single-stranded DNA)?
A: no binding

Q: Does “AAAAAAAAAACCTGAAAAAAAAAA / AGGTTTTTTT [p-p-p-10/template]” bind ([3]; 1 mM Mn2+, 2 uM PrimPol, 8 C, primer 5'-triphosphate, primer nt 1 is ribo-A, rest DNA, letters put together from the description)?
A: binds more weakly

Q: Which Kd [4] does the source give for “AAAAAAAAAACCTGAAAAAAAAAA / AGGTTTTTTTTT [p-p-p-12/Cy5-Acctg24]” here?
A: > 10000 nM

Q: What about the Kd [5] of the same sequence?
A: > 10000 nM

Q: Does “GACTACATTTCATCTGGCTTGGGCTTCATCGTTGTCGCAGACCTGGTGGATACCG / CGGTATCCACCAGGTCTG [Template-55/Primer-18]” bind [6]?
A: binds
